# Results from PubChem BioAssay AID2685 (National Center for Advancing Translational Sciences (NCATS), 2010).
# Among all 320,000 compounds or so, about 2,100 (0.66%) were called active. The inconclusive results got no clear call from the source; some entries with a clear call stand among them for comparison. The call rests on the fitted dose curve; in most records, active means well fitted inhibition curve with a large enough effect in the signal ratio, with a control signal flat (not every such curve was filed as active); inconclusive means small, poorly fitted or top-dose-only effect, or effect the other way, or a change in a side signal; inactive means flat fitted curve, though single readings scatter; the % refers to the signal ratio. A potency beside an inconclusive call is a rough fit, not a confirmed value.
# Assay: qHTS Assay for Lipid Storage Modulators in Drosophila S3 Cells
# Conditions: BODIPY lipid droplet fluorescence, 18-24 h, cells fed with added oleic acid; lipid storage change, negative = inhibition: at 46.1 µM (top of the series) unless noted
# How it was run: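 Drosophila S3 cells got compounds at several concentrations plus oleic acid (400 uM solution). Laser-scanning cytometry with 488 nm excitation read lipid droplets at 500-530 nm and cells at 575-640 nm. Percent activity was relative to 20 uM Triacsin C.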
# On the % scale 0 is the no-effect control and ±100 the full control effect; potency means the concentration at half of the fitted maximal effect.
Compound,Potency,"lipid storage change, negative = inhibition"
COc1ccc(C)cc1NC(=O)CN(C)S(=O)(=O)c1ccc2c(c1)n(C)c(=O)c(=O)n2C,"inconclusive: 0.651 µM [falling, partial curve, poor fit]",
COc1ccc(/C=N/NC(=O)c2ccncc2)cc1Cn1nc([N+](=O)[O-])c(Br)c1C,,inconclusive: -14.7%
Cc1cc(C(=O)N/N=C/c2c(CO)cnc(C)c2O)c2ccccc2n1,active: 5.17 µM,
CSc1ccccc1NC(=O)CN(C)C(=O)c1cccc(S(=O)(=O)N(C)C)c1,,inconclusive: 47.2%
Cc1[nH]c(=O)c(C#N)cc1-c1ccncc1,,inconclusive: -22%
O=C(NCCNCc1cccs1)c1ccccc1F,"inconclusive: 23.1 µM [rising, single point]",
N#Cc1cccn1-c1nccs1,,inconclusive: -4.96%
CCN1CCN(c2ccc(NC(=O)c3ccc4c(c3)[nH]c(=O)n4Cc3ccc(OC)cc3)cc2)CC1,"inconclusive: 3.26 µM [falling, partial curve, poor fit]",
NC(N)=N/N=C/c1ccc(Cl)cc1Cl,,inconclusive: 20.3%
COc1ccc(CCN(C)C(=O)CN2C(=O)NC3(CCCCC3C)C2=O)cc1OC (centres undefined),,inconclusive
OCCCNC(=S)Nc1ccc(Oc2ccccc2)cc1,"inconclusive: 6.51 µM [falling, single point]",
CCOC(=O)C1=C(C)NC(C)=C(C(=O)OCC)C1C,,inconclusive: 7.65%
CC(C)(C)OC(=O)NCCCC[C@H](NC(=O)c1nc[nH]c1C(=O)N[C@@H](CCCCNC(=O)OC(C)(C)C)C(=O)OC(C)(C)C)C(=O)OC(C)(C)C,,inconclusive: 10.8%
O=C(CN1C(=O)c2ccc([N+](=O)[O-])cc2C1=O)Nc1cc(S(=O)(=O)N2CCOCC2)ccc1Cl,,inconclusive: -51%
CCOc1ccc(NC(=O)CSC2=C(C#N)C(c3ccc4c(c3)OCO4)CC(=O)N2)cc1 (centres undefined),,inconclusive: 28.6%
Clc1ccc(-c2csc3ncnc(N4CCc5ccccc5C4)c23)cc1,"inconclusive: 0.517 µM [activator, partial curve]",
Cc1ccccc1OCC(=O)NNC(=O)c1ccc2c(=O)n3c(nc2c1)CCC3,,inconclusive
Cc1ccc(-c2nc(N)nc(N)n2)c(C)c1,"inconclusive: 29.1 µM [activator, single point]",
CCOCCOC(=O)COc1ccc2c(-c3ccccc3)cc(=O)oc2c1,,inconclusive: -28.9%
COc1ccc(C(=O)/C=C/Nc2cccc(C)n2)cc1OC,"inconclusive: 0.0092 µM [activator, full curve, poor fit]",
O=C(COC(=O)C12CC3CC(CC(C3)C1)C2)Nc1nc2c(F)c(F)c(F)cc2s1,"inconclusive: 29.1 µM [falling, single point]",
CCOc1ccccc1Nc1ccc2nonc2c1[N+](=O)[O-],,inconclusive: 4.21%
Cc1ccc(C(=O)C2=C(O)C(=O)N(CCCn3ccnc3)C2c2ccc(OC(C)C)cc2)o1 (centres undefined),"inconclusive: 0.0046 µM [falling, full curve, poor fit]",
Fc1ccccc1Oc1nc(-c2ccncc2)nc2ccccc12,,inconclusive: 4.08%
CNC(=O)c1cc2c(s1)-c1ccccc1CC2,,inconclusive: 16.2%

Compound,Potency,"lipid storage change, negative = inhibition"
CCC(=O)Nc1nc(-c2ccccc2)ns1,,inconclusive: -0.723%
CCOC(=O)c1cccc(NC(=O)CSc2nnc(-c3ccoc3C)n2CC)c1,,inconclusive: -10.6%
CCc1ccc(NC(=O)C(NS(=O)(=O)c2cccc3nsnc23)c2ccccc2)cc1 (centres undefined),"inconclusive: 7.31 µM [activator, partial curve]",
OCC[C@H]1C[C@H](O)[C@@H](O)[C@@]2(Cc3ccccc3CO2)O1,,inconclusive: 164%
O=C(c1ccc(-n2cnnn2)cc1)N1CCN(C(c2ccccc2)c2ccccc2)CC1,"inconclusive: 29.1 µM [activator, single point]",
O=C(COC(=O)Cc1ccc(F)cc1)NC1CCCCCC1,,inconclusive
CCOC(=O)N1CCC(NC(=O)CSCc2cnn(-c3ccccc3)c2-n2cccc2)CC1,,inconclusive: -50.7%
C#CCOc1ccc(/C=C2/C(=O)ON=C2C)cc1OCC,,inconclusive: -17.7%
Cc1ccc(S(=O)(=O)CC(CN2CCCCC2)N2CCCCC2)cc1 (centres undefined),,inconclusive: -33.9%
CCc1nc(N2CCN(C(C)=O)CC2)c2c3c(sc2n1)CC(C(C)(C)C)CC3 (centres undefined),"inconclusive: 3.26 µM [activator, full curve, poor fit]",
CC(C)[C@@H](CSc1ccccc1)N1CCN(Cc2ccccc2)CCC1=O,,inconclusive: -57.2%
Cc1ccc(OCC(=O)Nc2ccc3c(c2)CCC3)c([N+](=O)[O-])n1,,inconclusive: 38%
COC(=O)c1ccccc1NC(=O)c1ccc2c(c1)OCCO2,"inconclusive: 6.51 µM [activator, single point]",
CCOC(=O)[C@H]1[C@H]2COc3ccc(C)cc3[C@@H]2N2C(=O)c3ccccc3NC(=O)[C@@]12C,,inconclusive: -6.7%
Cc1csc(NC(=O)CSc2nc(C(C)C)nc3ccccc23)n1,active: 7.31 µM,
COc1ccc(NC(=O)CSc2nc3[nH]ncc3c(=O)[nH]2)cc1OC,,inconclusive: -30% [at 0.0737 µM]
COCc1cc(=O)n2[nH]c(-c3cccc(Br)c3)cc2n1,"inconclusive: 0.411 µM [activator, full curve, poor fit]",
CCC(C)(C)NC(=O)CN(C(=O)CCC(=O)Nc1nccs1)c1cccc(C)c1,,inconclusive: -23.3%
Cc1ccc(C(=O)N/C(=C\c2ccc(-c3ccccc3[N+](=O)[O-])o2)C(=O)NCCN(C)C)cc1,"inconclusive: 32.6 µM [falling, single point]",
Cn1nc(-c2ccccc2)c(CSc2ccccc2)c1Cl,,inconclusive: 379%
CC(=O)Nc1ccc(NC(=O)C(C)Sc2nc3ccccc3c(=O)n2CC2CCCO2)cc1 (centres undefined),,inconclusive: 23.6%
Cc1ccccc1CC1(CO)CCCN(C(=O)CCCN2CCCCC2=O)C1 (centres undefined),,inconclusive: 0.0547%
O=C(NC(=S)Nc1ccc2c(c1)OCCO2)c1cccc2ccccc12,"inconclusive: 8.2 µM [activator, partial curve]",
CC(C)CNC(=O)CSc1nnc(CN2CCCCCC2=O)n1-c1ccccn1,"inconclusive: 3.66 µM [falling, full curve]",
Cc1ccnc(NC(=O)c2ccc(Cl)c(S(=O)(=O)N3CCCC3)c2)c1,"inconclusive: 6.51 µM [activator, full curve, poor fit]",

# In the list so far, 4 contain fluorine.
Compound,Potency,"lipid storage change, negative = inhibition"
O=C(NCCNCc1cccs1)c1ccccc1F,"inconclusive: 23.1 µM [rising, single point]",
O=C(COC(=O)C12CC3CC(CC(C3)C1)C2)Nc1nc2c(F)c(F)c(F)cc2s1,"inconclusive: 29.1 µM [falling, single point]",
Fc1ccccc1Oc1nc(-c2ccncc2)nc2ccccc12,,inconclusive: 4.08%
O=C(COC(=O)Cc1ccc(F)cc1)NC1CCCCCC1,,inconclusive

# (more compounds)

Compound,Potency,"lipid storage change, negative = inhibition"
CC1(C)Cc2cccc(OCC(=O)OCC(=O)NCc3ccc(F)cc3)c2O1,,inconclusive: -18%
COc1ccc(S(=O)(=O)Nc2cccc(C)n2)c2ccccc12,"inconclusive: 4.61 µM [activator, single point]",
O=C(CCNC(=O)c1ccc(Br)cc1)NCC1COc2ccccc2O1 (centres undefined),"inconclusive: 29.1 µM [cytotoxic, single point]",
CCC1CCCCN1C(=O)Nc1cc(Cl)ccc1OC (centres undefined),,inconclusive: -19.1%
COCCNc1nnc(SC(C)C(=O)Nc2c(C)n(C)n(-c3ccccc3)c2=O)s1 (centres undefined),"inconclusive: 0.058 µM [falling, full curve, poor fit]",
COc1ccccc1CNC(=O)COC(=O)c1nc(Cl)ccc1Cl,,inconclusive: 31.1%
CCOc1ccc(Cl)cc1CN1CCOCC1,"inconclusive: 0.116 µM [falling, full curve, poor fit]",
CC1CN(C(=O)COC(=O)CSc2ccc([N+](=O)[O-])cc2)CC(C)O1 (centres undefined),,inconclusive: 3.61%
CCN(CC)CCCOc1nc(C)nc2c1oc1ccccc12,"inconclusive: 4.11 µM [falling, single point]",
COc1cc(C(=O)N2CCC(NC(=O)C(Cc3ccccc3C)NC(C)=O)CC2)cc(OC)c1OC (centres undefined),,inconclusive: 1.4%
O=C(NC1CCCCC1)c1ccc(S(=O)(=O)NCc2cccnc2)cc1,"inconclusive: 29.1 µM [activator, single point]",
CCn1cnc2cc(NCc3cccc(OC)c3O)ccc21,"inconclusive: 29.1 µM [activator, single point]",
CCc1cc2c(NC(Cc3ccccc3)C(=O)O)nc(C)nc2s1 (centres undefined),,inconclusive: -12.8%
CN(C)S(=O)(=O)c1ccc(C(=O)N2CC(=O)Nc3ccc(F)cc3C2c2ccc(F)cc2)cc1 (centres undefined),,inconclusive: -33.2%
O=C(N/C(=C\c1cccs1)C(=O)N1CCOCC1)c1ccco1,,inconclusive: -0.237%
CCCCCCCC[n+]1cccc(C(=O)N2c3c(nc(N)[nH]c3=O)NC(C)C2C)c1 (centres undefined),"inconclusive: 8.2 µM [falling, partial curve, poor fit]",
O=c1[nH]cnc2cc(Cl)ccc12,"inconclusive: 16.4 µM [activator, single point]",
Cc1sc2nc[nH]c(=O)c2c1-c1ccc(F)cc1,,inconclusive: 29.8%
O=C(CSc1nnc(NC(=O)C2CCCCC2)s1)NCc1ccco1,,inconclusive: 21.2%
Cc1ccccc1C(=O)NC(=S)Nc1ccc2[nH]c(=O)[nH]c2c1,,inconclusive: 3.21%
CCCS(=O)(=O)N1CCN(S(=O)(=O)c2ccccc2)CC1,,inconclusive: -120%
COc1ccc(C(=O)Nn2cnc3ccccc3c2=O)cc1[N+](=O)[O-],,inconclusive: 10.2%
COC(=O)c1cc2c(s1)c1cnn(Cc3ccccc3F)c(=O)c1n2C,,inconclusive: 22.4%
Cc1ccc(C(=O)OCC(=O)c2c[nH]c3ccccc23)cc1NC(=O)c1ccco1,,inconclusive: -42.9% [cytotoxic] [at 0.00295 µM]
